Drawing on PMC6513997, this text covers binding for one molecule.

Sequences of proteins named here, by UniProt entry; tags and fusion partners are left off.
UniProt Q15910: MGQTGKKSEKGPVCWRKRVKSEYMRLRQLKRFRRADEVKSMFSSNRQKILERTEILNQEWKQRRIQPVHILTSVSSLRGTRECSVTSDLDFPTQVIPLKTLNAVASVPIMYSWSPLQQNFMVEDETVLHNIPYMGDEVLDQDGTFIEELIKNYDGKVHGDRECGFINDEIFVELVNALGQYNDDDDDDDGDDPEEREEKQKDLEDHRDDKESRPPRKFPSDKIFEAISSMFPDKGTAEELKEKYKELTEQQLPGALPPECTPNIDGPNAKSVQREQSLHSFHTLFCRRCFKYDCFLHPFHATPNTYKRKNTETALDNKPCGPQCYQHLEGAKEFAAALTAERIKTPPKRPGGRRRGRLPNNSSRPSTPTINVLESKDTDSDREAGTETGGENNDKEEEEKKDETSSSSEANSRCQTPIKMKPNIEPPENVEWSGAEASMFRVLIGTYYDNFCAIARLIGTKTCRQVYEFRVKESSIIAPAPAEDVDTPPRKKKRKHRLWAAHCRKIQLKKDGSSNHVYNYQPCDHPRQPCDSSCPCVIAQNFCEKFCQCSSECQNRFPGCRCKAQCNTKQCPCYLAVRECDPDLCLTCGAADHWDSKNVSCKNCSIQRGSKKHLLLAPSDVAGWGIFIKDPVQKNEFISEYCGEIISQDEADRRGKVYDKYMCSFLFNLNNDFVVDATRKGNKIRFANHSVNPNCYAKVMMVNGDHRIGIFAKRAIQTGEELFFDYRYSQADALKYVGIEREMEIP

Results are given in words; binding and its absence hold for the method and conditions named. In cells and extracts the contact can be indirect. Some results given as binding are weak or reduced against the parent protein; the word gives no strength.

The assay addresses FLAG-tagged EZH2 (in U2OS cells) (UniProt Q15910). Kind of assay: co-IP; FLAG-tagged EZH2 immunoprecipitated from U2OS cells, endogenous EZHIP detected.

B1: endogenous EZHIP (U2OS cells) (protein, UniProt Q86X51 1-503)
chain: MATQSDMEKEQKHQQDEGQGGLNNETALASGDACGTGNQDPAASVTTVSSQASPSGGAALSSSTAGSSAAAATSAAIFITDEASGLPIIAAVLTERHSDRQDCRSPHEVFGCVVPEGGSQAAVGPQKATGHADEHLAQTKSPGNSRRRKQPCRNQAAPAQKPPGRRLFPEPLPPSSPGFRPSSYPCSGASTSSQATQPGPALLSHASEARPATRSRITLVASALRRRASGPGPVIRGCTAQPGPAFPHRATHLDPARLSPESAPGPARRGRASVPGPARRGCDSAPGPARRGRDSAPVSAPRGRDSAPGSARRGRDSAPGPALRVRTARSDAGHRSTSTTPGTGLRSRSTQQRSALLSRRSLSGSADENPSCGTGSERLAFQSRSGSPDPEVPSRASPPVWHAVRMRASSPSPPGRFFLPIPQQWDESSSSSYASNSSSPSRSPGLSPSSPSPEFLGLRSISTPSPESLRYALMPEFYALSPVPPEEQAEIESTAHPATPPEP
Consider B1, for which the binding entry is “binds”.
